Test results: patent publication US20090202526A1
No constants are given. Whether binding was seen depends on the method and setting. Some entries that bind do so weakly or less than the wild type.

Amino acid sequences for entries named in this document (tags omitted). Residues count along the entry.
UniProt Q63604, residues 32-429: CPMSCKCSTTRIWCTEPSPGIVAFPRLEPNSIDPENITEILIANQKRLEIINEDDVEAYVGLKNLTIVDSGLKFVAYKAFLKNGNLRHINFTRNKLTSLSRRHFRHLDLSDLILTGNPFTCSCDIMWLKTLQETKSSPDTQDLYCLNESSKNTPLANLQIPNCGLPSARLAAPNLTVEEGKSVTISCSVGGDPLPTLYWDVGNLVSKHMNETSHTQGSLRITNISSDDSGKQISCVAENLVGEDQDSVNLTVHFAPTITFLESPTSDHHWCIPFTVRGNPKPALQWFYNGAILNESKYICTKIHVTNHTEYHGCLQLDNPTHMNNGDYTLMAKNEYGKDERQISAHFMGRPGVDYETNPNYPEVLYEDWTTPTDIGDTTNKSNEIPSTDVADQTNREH

Molecular target: Rat trkB (rat) (UniProt Q63604)
Assay: BIAcore SPR, positive control

binding: binds
B1: Human NT-4/5 (ligand, UniProt P34130 81-210, looked up)
chain: GVSETAPASRRGELAVCDAVSGWVTDRRTAVDLRGREVEVLGEVPAAGGSPLRQYFFETRCKADNAEEGGPGAGGGGCRGVDRRHWVSECKAKQSYVRALTADAQGRVGWRWIRIDTACVCTLLSRTGRA
